Source: patent publication US20200392252A1 (ALLOGENE THERAPEUTICS, published 2020)
Positions count from the first letter of the chain named. Results are given in words; binding and its absence hold for the method and conditions named. Some binding calls cover weakened binding; strength is not graded here.

Columns and labels:
[1] = target: FokI catalytic domain protein including a C-terminal 6xHis tag and GSGS linker (Flavobacterium okeanokoites) (UniProt P14870); experiment: ELISA (antigen taken from the row's Analyte column)
[2] = target: FokI catalytic domain protein including a C-terminal 6xHis tag and GSGS linker (Flavobacterium okeanokoites) (UniProt P14870); experiment: Biacore SPR, antibody as ligand, FokI as analyte
[3] = target: FokI catalytic domain protein including a C-terminal 6xHis tag and GSGS linker (Flavobacterium okeanokoites) (UniProt P14870); experiment: Western blot (antigen taken from the row's Analyte column)

Measured: binding

B1: 2299.5D4.C8 (antibody, V domains shown)
VH: QIQLVQSGPELKKPGETVKISCKASGYTFTDYSIHWVKQAPGEGLKWMAWINTETGAPTFADDFKGRLALSLETSANTAYLQINNLKHEDTATYFCAKEGGFYFYAMDYWGQGTSVTVSS
VL: DIVMSQSPSSLAVSAGEKVTMSCKSSQSLLSSRTRKNYLAWYQQKPGQAPKLLISWASTRESGVPDRFTGSGSGTEFTLTISSVQAEDLAVYYCKQSYNLRTFGGGTKLEIK
binds: all assays above

B2: 2299.6B3.B8.B6 (antibody, V domains shown)
VH: QIQLVQSGPELKKPGETVKISCKASGYAFTDYSIHWMKQAPGEGLQWMGWINTETAKPAFGDDFKGRFAFSLETSANTAHLHINNLRTEDTATYFCAKEGGFYFYAMDYWGQGTSVTVSS
VL: B1 VL with S22N, A49S, S55Y, E61D, E76D, L100F
binds: all assays above

B3: 2299.6G5.C7 (antibody, V domains shown)
VH: B1 VH with E43K, A49G, L68F, L70F, N77S, Y80F, H88N, V116L
VL: B1 VL with A15T, E76D, Y98F
binds: all assays above

B4: 2299.2G3.C6 (antibody, V domains shown)
VH: B1 VH
VL: B1 VL with L11R, L52M, S62F, S73F, E76D, A86G, L100F
binds: all assays above

B5: 2299.7F11.B4 (antibody, V domains shown)
VH: B1 VH with E43K, A57D, F60Y, A61E, L68F, L70F, N77S, H88N, A97S
VL: B1 VL with A49S, S55K, E76D
binds: all assays above
